We go through 13 compounds from the supplement of paper PMC10727501.

The other results are listed elsewhere or left out. This data set is noisy: repeats of one test often differ as much as different tests do.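 Free-swimming zebrafish larvae were assessed for O-bend response probability to dark flashes (naive: first five; training: remaining flashes across four 60-flash blocks; test: later 60-flash block) and for OMR turning toward alternating leftward/rightward LED motion. Six treated larvae were compared against sixty 0.1% DMSO controls; hits required |SSMD|≥2.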

Holding throughout (details): 10 µM; pre-incubation: 30-90 min
Test [1] relates to Danio rerio larvae (5 dpf, TLF). Kind of test: OMR-Perf (SSMD vs DMSO vehicle); higher = higher than vehicle (e.g. higher dark-flash O-bend response probability, or better optomotor performance).
For test [2] the test system is unchanged. Kind of test: Prob-Test (SSMD vs DMSO vehicle); higher = higher than vehicle (e.g. higher dark-flash O-bend response probability, or better optomotor performance).
The test system is the same in test [3]. Kind of test: Prob-Naive (SSMD vs DMSO vehicle); higher = higher than vehicle (e.g. higher dark-flash O-bend response probability, or better optomotor performance).
Test [4] shares this test system. Kind of test: Prob-Train (SSMD vs DMSO vehicle); higher = higher than vehicle (e.g. higher dark-flash O-bend response probability, or better optomotor performance).

The compound `CCC(=O)N1CCN(c2ccc(-n3c(=O)ccc4cnc5ccc(-c6cnc7ccccc7c6)cc5c43)cc2C(F)(F)F)CC1` [Torin 1] registered an OMR-Perf in test [1] of -0.0788. Also, the Prob-Test in test [2] is -0.62. The compound also displayed a Prob-Naive in test [3] of -0.274. Also, the Prob-Train in test [4] was -0.354.

Consider `C[C@@H]1C(=O)O[C@H]2CC34[C@H]5C[C@@H](C(C)(C)C)C36[C@@H](OC(=O)[C@H]6O)O[C@@]4(C(=O)O5)[C@]21O` (some centres not stated) [Ginkgolide A], for which the OMR-Perf in test [1] is -0.155. In test [2], the Prob-Test was -0.2. In test [3], this compound displayed a Prob-Naive of 0.0775. The Prob-Train in test [4] is -0.252.

For `CCOc1cc2ncc(C#N)c(Nc3ccc(F)c(Cl)c3)c2cc1NC(=O)/C=C/CN(C)C` [Pelitinib (EKB-569)], the OMR-Perf in test [1] was -0.157. Besides, in test [2], the Prob-Test amounted to 0.249. In test [3], this compound yielded a Prob-Naive of -0.043. The compound also had a Prob-Train in test [4] of -0.698.

As for `O=C(O)c1cccnc1Nc1cccc(C(F)(F)F)c1` [Niflumic acid], the OMR-Perf in test [1] was -0.963. The compound also had a Prob-Test in test [2] of -1.54. Moreover, the Prob-Naive in test [3] was -0.227. In test [4], the Prob-Train is -1.79.

On to `COc1nc(C)nc(Cl)c1NC1=NCCN1` [Moxonidine], for which the OMR-Perf in test [1] is -0.54. Further, the Prob-Test in test [2] was -0.337. Further, the Prob-Naive in test [3] was 0.285. The compound further displayed a Prob-Train in test [4] of 0.127.

With `CC1(C)CCC(C)(C)c2cc(NC(=O)c3ccc(C(=O)O)cc3)ccc21` [Tamibarotene], the OMR-Perf in test [1] was 0.561. Also, the Prob-Test in test [2] amounted to 0.87. In test [3], this compound displayed a Prob-Naive of 0.134. In test [4], this compound displayed a Prob-Train of 0.691.

Compound `COCCCC/C(=N\OCCN)c1ccc(C(F)(F)F)cc1.O=C(O)/C=C/C(=O)O` [Fluvoxamine maleate] gave an OMR-Perf in test [1] of -0.0755. Moreover, the Prob-Test in test [2] was -0.276. Also, in test [3], the Prob-Naive is -0.544. The compound further returned a Prob-Train in test [4] of -0.921.

`COc1ccc2c(c1)c(CC(=O)N1CCOCC1)c(C)n2C(=O)c1ccc(Cl)cc1`: the OMR-Perf in test [1] is -0.468. The compound also returned a Prob-Test in test [2] of -1.52. This compound returned a Prob-Naive in test [3] of -1.08. Also, the Prob-Train in test [4] is -3.2.

`O=C(CS(=O)Cc1ccco1)NC/C=C\COc1cc(CN2CCCCC2)ccn1` (configuration not stated) [Lafutidine] registered an OMR-Perf in test [1] of -0.389. The Prob-Test in test [2] is -0.451. The Prob-Naive in test [3] is -0.5. This compound registered a Prob-Train in test [4] of -0.56.

On to `CC(C)[C@H](N)C(=O)OCCOCn1cnc2c(=O)[nH]c(N)nc21.Cl` [Valaciclovir HCl], for which the OMR-Perf in test [1] came out at 0.116. The compound further had a Prob-Test in test [2] of 0.322. The same compound came in with a Prob-Naive in test [3] of -0.311. Further, the Prob-Train in test [4] is -0.181.

In turn, `O=C(O)C1=CC(O)C(O)[C@H](O)C1` (some centres not stated) [Shikimic Acid] registered an OMR-Perf in test [1] of 0.0675. This compound also registered a Prob-Test in test [2] of -0.167. This compound also yielded a Prob-Naive in test [3] of -0.283. The Prob-Train in test [4] was found to be 0.107.

Consider `Cn1cc[nH]c1=S` [Methimazole], for which the OMR-Perf in test [1] was -0.534. In test [2], this compound registered a Prob-Test of -0.147. This compound also had a Prob-Naive in test [3] of 0.0533. Also, in test [4], the Prob-Train is -0.324.

With `CN(C)CCOC(C)(c1ccccc1)c1ccccn1.O=C(O)CCC(=O)O` (configuration not stated) [Doxylamine Succinate], the OMR-Perf in test [1] is -0.27. The compound further came in with a Prob-Test in test [2] of -0.136. In test [3], the Prob-Naive amounted to 0.0551. In test [4], this compound registered a Prob-Train of -0.382.
